Measurements from US10526389B2, “Peptides and combinations of peptides for use in immunotherapy against lung cancer, including NSCLC and other cancers” (Immatics Biotechnologies GmbH, priority 2015, dated 2020).

How the values were obtained:
[1] = system: source genes of the peptides (mRNA) in tumors vs normal tissues; assay: Expression profiling of genes encoding the peptides (Affymetrix microarray); set-up: species or system human; key: very highly over-expressed in tumors compared to a panel of normal tissues (+++); highly over-expressed in tumors compared to a panel of normal tissues (++); over-expressed in tumors compared to a panel of normal tissues (+); details: tumors compared to a panel of normal tissues
[2] = system: HLA-A*02-positive lung cancer (NSCLC) samples; assay: Relative LC-MS quantitation of HLA-A*02 peptide presentation on tumors vs normal tissues; set-up: species or system human; details: for Other relevant organs/diseases (additional tumour types on which the peptide was found) / Additional Entities (additional tumor types showing over-presentation): HLA-A*02 peptides; for Other relevant organs/diseases (additional tumour types on which the peptide was found): over-presented on >5% of measured tumour samples, or presented on >5% with ratio of geometric means tumour vs normal >3; for Additional Entities (additional tumor types showing over-presentation): amendment of Table 9, >5% of measured tumor samples or ratio of geometric means tumor vs normal >3
[3] = system: HLA-A*24-positive lung cancer (NSCLC) samples; assay: Relative LC-MS quantitation of HLA-A*24 peptide presentation on tumors vs normal tissues; set-up: species or system human; details: for Other relevant organs/diseases (additional tumor types on which the peptide was found): over-presented on >5% of measured tumor samples, or presented on >5% with ratio of geometric means tumor vs normal >3

117: peptide found in CCNB1 (gene looked up) (ILIDWLVQV; listed as Homo sapiens) [compound 117]
Gene Expression (expression score of source gene) ([1]; HLA-A*02 peptides): + | Other relevant organs/diseases (additional tumour types on which the peptide was found) [2]: Kidney, Brain, Stomach, Colon, Rectum, Liver, Pancreas, Melanoma, Ovary

143: peptide found in COPG1 (gene looked up) (AIVDKVPSV; listed as Homo sapiens) [compound 143]
Gene Expression (expression score of source gene) ([1]; HLA-A*02 peptides): + | Other relevant organs/diseases (additional tumour types on which the peptide was found) [2]: Kidney, Liver, Pancreas, Prostate, Ovary, Esophagus

26: peptide found in MMP12 (gene looked up) (RYLEKFYGL; listed as Homo sapiens) [compound 26]
Gene Expression (expression score of source gene) ([1]; HLA-A*24 peptides): +++ | Other relevant organs/diseases (additional tumor types on which the peptide was found) ([3]; HLA-A*24 peptides): Stomach, Liver

2: peptide found in SLC6A14 (gene looked up) (FLIPYAIML; listed as Homo sapiens) [compound 2]
Gene Expression (expression score of source gene) ([1]; HLA-A*02 peptides): ++ | peptide was also found on (other cancers, not shown) ([2]; FIG. 1A, 1B legends, A*02): pancreatic cancer, gastric cancer, colorectal cancer, esophageal cancer | Additional Entities (additional tumor types showing over-presentation) [2]: SCLC, PC, Urinary bladder cancer, Gallbladder Cancer, Bile Duct Cancer | Other relevant organs/diseases (additional tumour types on which the peptide was found) [2]: Stomach, Colon, Rectum, Pancreas

29: peptide found in PLOD2 (gene looked up) (YYTKGFALLNF; listed as Homo sapiens) [compound 29]
Gene Expression (expression score of source gene) ([1]; HLA-A*24 peptides): + | cell lines, normal tissues and cancer tissues where the peptide has been detected ([3]; FIG. 1F legend, A*24): 30 cancer tissues (1 brain cancer, 3 kidney cancers, 2 liver cancers, 22 lung cancers, 2 stomach cancers) | Other relevant organs/diseases (additional tumor types on which the peptide was found) ([3]; HLA-A*24 peptides): Kidney, Brain, Liver

115: peptide found in FAP (gene looked up) (YVYQNNIYL; listed as Homo sapiens) [compound 115]
Gene Expression (expression score of source gene) ([1]; HLA-A*02 peptides): + | Other relevant organs/diseases (additional tumour types on which the peptide was found) [2]: Stomach, Colon, Rectum, Liver, Pancreas, Breast, Melanoma, Ovary, Esophagus

8: peptide found in UBA6 (gene looked up) (ALLNILSEV; listed as Homo sapiens) [compound 8]
Gene Expression (expression score of source gene) ([1]; HLA-A*02 peptides): ++ | Additional Entities (additional tumor types showing over-presentation) [2]: SCLC, BRCA, Esophageal Cancer, Urinary bladder cancer, Uterine Cancer | Other relevant organs/diseases (additional tumour types on which the peptide was found) [2]: Brain, Liver, Prostate, Ovary

5: peptide found in GPNMB (gene looked up) (ALTSTLISV; listed as Homo sapiens) [compound 5]
Gene Expression (expression score of source gene) ([1]; HLA-A*02 peptides): + | Other relevant organs/diseases (additional tumour types on which the peptide was found) [2]: Breast, Melanoma, Esophagus

161: peptide found in CDK1 (gene looked up) (LYQILQGIVF; listed as Homo sapiens) [compound 161]
Gene Expression (expression score of source gene) ([1]; HLA-A*24 peptides): + | Other relevant organs/diseases (additional tumor types on which the peptide was found) ([3]; HLA-A*24 peptides): Kidney, Stomach, Liver

116: peptide found in MMP12 (gene looked up) (KIQEMQHFL; listed as Homo sapiens) [compound 116]
Gene Expression (expression score of source gene) ([1]; HLA-A*02 peptides): +++ | Other relevant organs/diseases (additional tumour types on which the peptide was found) [2]: Colon, Rectum

131: peptide found in CCNB1 (gene looked up) (ALVQDLAKA; listed as Homo sapiens) [compound 131]
Gene Expression (expression score of source gene) ([1]; HLA-A*02 peptides): + | Other relevant organs/diseases (additional tumour types on which the peptide was found) [2]: Kidney, Stomach, Colon, Rectum, Liver, Pancreas, Ovary

130: peptide found in TPX2 (gene looked up) (KILEDVVGV; listed as Homo sapiens) [compound 130]
Gene Expression (expression score of source gene) ([1]; HLA-A*02 peptides): + | Other relevant organs/diseases (additional tumour types on which the peptide was found) [2]: Kidney, Stomach, Colon, Rectum, Melanoma, Ovary, Esophagus

19: peptide found in GPNMB (gene looked up) (VLTSDSPAL; listed as Homo sapiens) [compound 19]
Gene Expression (expression score of source gene) ([1]; HLA-A*02 peptides): + | Other relevant organs/diseases (additional tumour types on which the peptide was found) [2]: Liver, Melanoma, Esophagus

39: peptide found in DOCK2 (gene looked up) (KFLEHTNFEF; listed as Homo sapiens) [compound 39]
Gene Expression (expression score of source gene) ([1]; HLA-A*24 peptides): + | Other relevant organs/diseases (additional tumor types on which the peptide was found) ([3]; HLA-A*24 peptides): Liver

142: peptide found in SLC34A2 (gene looked up) (VLLPVEVATHYL; listed as Homo sapiens) [compound 142]
Gene Expression (expression score of source gene) ([1]; HLA-A*02 peptides): ++ | Other relevant organs/diseases (additional tumour types on which the peptide was found) [2]: Ovary

47: peptide found in ENO1 (gene looked up) (RYISPDQLADL; listed as Homo sapiens) [compound 47]
Gene Expression (expression score of source gene) ([1]; HLA-A*24 peptides): + | Additional Entities (additional tumor types showing over-presentation) ([3]; HLA-A*24 peptides, amendment of Table 10): HCC | Other relevant organs/diseases (additional tumor types on which the peptide was found) ([3]; HLA-A*24 peptides): Kidney

120: peptide found in IGF2BP3 (gene looked up) (KIQEILTQV; listed as Homo sapiens) [compound 120]
Gene Expression (expression score of source gene) ([1]; HLA-A*02 peptides): ++ | Other relevant organs/diseases (additional tumour types on which the peptide was found) [2]: Kidney, Brain, Stomach, Colon, Rectum, Liver, Pancreas, Leukocytes, Ovary, Esophagus

31: peptide found in KRT10 (gene looked up) (SYLDKVRAL; listed as Homo sapiens) [compound 31]
Gene Expression (expression score of source gene) ([1]; HLA-A*24 peptides): + | Other relevant organs/diseases (additional tumor types on which the peptide was found) ([3]; HLA-A*24 peptides): Stomach

159: peptide found in MMP12 (gene looked up) (TYKYVDINTF; listed as Homo sapiens) [compound 159]
Gene Expression (expression score of source gene) ([1]; HLA-A*24 peptides): +++ | Other relevant organs/diseases (additional tumor types on which the peptide was found) ([3]; HLA-A*24 peptides): Stomach

43: peptide found in ALOX15B (gene looked up) (RYTLHINTL; listed as Homo sapiens) [compound 43]
Gene Expression (expression score of source gene) ([1]; HLA-A*24 peptides): + | Other relevant organs/diseases (additional tumor types on which the peptide was found) ([3]; HLA-A*24 peptides): Prostate

119: peptide found in FN1 (gene looked up) (IVDDITYNV; listed as Homo sapiens) [compound 119]
Gene Expression (expression score of source gene) ([1]; HLA-A*02 peptides): + | Other relevant organs/diseases (additional tumour types on which the peptide was found) [2]: Liver, Pancreas, Breast, Esophagus

106: peptide found in MCM4 (gene looked up) (SILEHQIQV; listed as Homo sapiens) [compound 106]
Gene Expression (expression score of source gene) ([1]; HLA-A*02 peptides): ++ | Additional Entities (additional tumor types showing over-presentation) [2]: CRC, BRCA, Esophageal Cancer, Urinary bladder cancer, Uterine Cancer, AML, NHL | Other relevant organs/diseases (additional tumour types on which the peptide was found) [2]: Kidney

105: peptide found in STAT1 (gene looked up) (IVAESLQQV; listed as Homo sapiens) [compound 105]
Gene Expression (expression score of source gene) ([1]; HLA-A*02 peptides): ++ | Additional Entities (additional tumor types showing over-presentation) [2]: SCLC, Melanoma, NHL | Other relevant organs/diseases (additional tumour types on which the peptide was found) [2]: Kidney, Stomach, Pancreas, Breast, Ovary, Esophagus

108: peptide found in UBA6 (gene looked up) (TLLDFINAV; listed as Homo sapiens) [compound 108]
Gene Expression (expression score of source gene) ([1]; HLA-A*02 peptides): ++ | Additional Entities (additional tumor types showing over-presentation) [2]: NHL

97: peptide found in LPCAT1 (gene looked up) (TLFPVRLLV; listed as Homo sapiens) [compound 97]
Gene Expression (expression score of source gene) ([1]; HLA-A*02 peptides): + | Other relevant organs/diseases (additional tumour types on which the peptide was found) [2]: Kidney, Leukocytes

133: peptide found in KRT10 (gene looked up) (RLASYLDKV; listed as Homo sapiens) [compound 133]
Gene Expression (expression score of source gene) ([1]; HLA-A*02 peptides): + | Other relevant organs/diseases (additional tumour types on which the peptide was found) [2]: Pancreas, Breast, Esophagus

95: peptide found in MSH6 (gene looked up) (KIIGIMEEV; listed as Homo sapiens) [compound 95]
Gene Expression (expression score of source gene) ([1]; HLA-A*02 peptides): ++ | Additional Entities (additional tumor types showing over-presentation) [2]: SCLC, Brain Cancer, GC, CRC, Melanoma, AML, NHL | Other relevant organs/diseases (additional tumour types on which the peptide was found) [2]: Kidney, MCC, Esophagus

11: peptide found in SMC4 (gene looked up) (YLNVQVKEL; listed as Homo sapiens) [compound 11]
Gene Expression (expression score of source gene) ([1]; HLA-A*02 peptides): ++ | Additional Entities (additional tumor types showing over-presentation) [2]: SCLC, Melanoma, Esophageal Cancer, Urinary bladder cancer, Uterine Cancer, Gallbladder Cancer, Bile Duct Cancer, AML | Other relevant organs/diseases (additional tumour types on which the peptide was found) [2]: Colon, Rectum, Liver

For some assays here: For expression read-outs the peptide stands for its source gene, whose mRNA was measured; the gene is not named for every peptide.
